At least one structure is not confirmed: it was looked up by name or label, or the drawing left a doubt.
Tested on: rat GPR39
Test: Intracellular calcium increasing activity by FLIPR in CHO cell line stably expressing rat GPR39
Assay type: cell-based
Conditions: 50 or 10 μM, Fluo-3AM, FIG. 1

In the case of `C[C@H](CCC(=O)NCCS(=O)(=O)O)[C@H]1CC[C@H]2[C@@H]3CC[C@@H]4C[C@H](O)CC[C@]4(C)[C@H]3CC[C@]12C` [taurolithocholic acid], the “intracellular calcium level of CHO/rGPR39 (agonist activity on rat GPR39)” value is reported as “dose-dependently increased”.
